Laboratory results from patent US20220185911A1.
Results are given in words; binding and its absence hold for the method and conditions named. Some binding calls cover weakened binding; strength is not graded here.

By UniProt entry, the sequences of proteins in these tests, tags left out. Where a name states a change or a piece, a line headed by the entry shows the natural chain unless it says otherwise. Chains listed by the source or under a name are the forms on record and can include a tag or linker.
vascular endothelial growth factor (VEGF) (P15692, form named): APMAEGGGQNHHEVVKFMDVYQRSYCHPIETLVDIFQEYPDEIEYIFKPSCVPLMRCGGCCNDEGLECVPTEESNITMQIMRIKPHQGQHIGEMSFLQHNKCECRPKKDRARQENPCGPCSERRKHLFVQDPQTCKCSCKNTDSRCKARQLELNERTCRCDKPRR

What was measured:
[1] = target: vascular endothelial growth factor (VEGF) (UniProt P15692); assay: ELISA
[2] = target: vascular endothelial growth factor (VEGF) (UniProt P15692); assay: ELISA (FIG. 6C)

binding [1]: binds
binding [2]: binds
B1: monoclonal antibody D5 (antibody, human IgG1, V domains shown)
VH: EVQLVESGGGLIQPGGSLRLSCAASGFTVSSNYMSWVRQAPGKGLEWVSVIYTGGGTYYADSVKGRFTISRDNSQNTLYLQMNSLRAEDTAVYYCAREAPFTAALYYWGQGTLVTVSS
VL: QSVLTQPPSASGSPGQSVTISCTGTSSDVGGYNSVSWYQQHPGKAPKLMIYEVTIRPSGVPDRFSGSKSGNTASLTVSGLQAEDEADYYCSSYAGNNNRVVFGGGTKLTVL
